Results: patent publication US10083341B2, “Cellular activity quantification using labeled probes” (Oregon Health & Science University, priority 2014, dated 2018)

System: MOLM-14 cells
Test: Inhibitory concentrations (IC50, IC12.5) of kinase inhibitor panel for MOLM-14 cells
Format: cell-based
Details: Homo sapiens, concentration used for 48 h treatment

Cc1ccc(NC(=O)c2ccc(CN3CCN(C)CC3)cc2)cc1Nc1nccc(-c2cccnc2)n1 [imatinib]
IC50: 10 µM
